From publication PMC8384837
Substitutions are numbered along the chain they refer to. Some of the results follow. For part of these data: At the low end of the ranking the order means little.

Key:
Conditions in all cases: yeast three-hybrid, YBZ-1, SC-Leu-His + 0.5 mM 3-AT, 4 days
[1] = target: T1, PUM1 PUF domain R3-GFL C935G + R936F + Q939L (UniProt Q14671)
T1 sequence: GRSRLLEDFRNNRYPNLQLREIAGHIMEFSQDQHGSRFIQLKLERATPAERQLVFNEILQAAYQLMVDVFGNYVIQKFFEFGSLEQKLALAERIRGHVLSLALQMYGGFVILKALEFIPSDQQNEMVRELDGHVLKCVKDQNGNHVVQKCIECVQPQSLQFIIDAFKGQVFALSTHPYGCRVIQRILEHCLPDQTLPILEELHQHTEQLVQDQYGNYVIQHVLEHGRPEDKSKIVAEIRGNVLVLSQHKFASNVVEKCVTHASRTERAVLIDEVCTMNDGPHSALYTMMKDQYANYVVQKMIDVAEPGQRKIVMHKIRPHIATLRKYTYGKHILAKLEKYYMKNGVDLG

[2] = target: T2, PUM1 PUF domain R3-GFP C935G + R936F + Q939P (UniProt Q14671)
T2 sequence: T1 sequence with L112P

[3] = target: T3, PUM1 PUF domain R3-GHG C935G + R936H + Q939G (UniProt Q14671)
T3 sequence: T1 sequence with F109H, L112G

[4] = target: T4, PUM1 PUF domain R3-GIR C935G + R936I + Q939R (Homo sapiens) (UniProt Q14671)
T4 sequence: T1 sequence with F109I, L112R

[5] = target: T5, PUM1 PUF domain R3-GPC C935G + R936P + Q939C (UniProt Q14671)
T5 sequence: T1 sequence with F109P, L112C

[6] = target: T6, PUM1 PUF domain R3-GPD C935G + R936P + Q939D (UniProt Q14671)
T6 sequence: T1 sequence with F109P, L112D

[7] = target: T7, PUM1 PUF domain R3-GPF C935G + R936P + Q939F (UniProt Q14671)
T7 sequence: T1 sequence with F109P, L112F

[8] = target: T8, PUM1 PUF domain R3-GPS C935G + R936P + Q939S (UniProt Q14671)
T8 sequence: T1 sequence with F109P, L112S

[9] = target: T9, PUM1 PUF domain R3-GPV C935G + R936P + Q939V (UniProt Q14671)
T9 sequence: T1 sequence with F109P, L112V

[10] = target: T10, PUM1 PUF domain R3-GPW C935G + R936P + Q939W (UniProt Q14671)
T10 sequence: T1 sequence with F109P, L112W

[11] = target: T11, PUM1 PUF domain R3-GRA C935G + Q939A (UniProt Q14671)
T11 sequence: T1 sequence with F109R, L112A

[12] = target: T12, PUM1 PUF domain R3-GRC C935G + Q939C (UniProt Q14671)
T12 sequence: T1 sequence with F109R, L112C

[13] = target: T13, PUM1 PUF domain R3-GRD C935G + Q939D (UniProt Q14671)
T13 sequence: T1 sequence with F109R, L112D

[14] = target: T14, PUM1 PUF domain R3-GRF C935G + Q939F (UniProt Q14671)
T14 sequence: T1 sequence with F109R, L112F

[15] = target: T15, PUM1 PUF domain R3-GRG C935G + Q939G (UniProt Q14671)
T15 sequence: T1 sequence with F109R, L112G

[16] = target: T16, PUM1 PUF domain R3-GRH C935G + Q939H (UniProt Q14671)
T16 sequence: T1 sequence with F109R, L112H

[17] = target: T17, PUM1 PUF domain R3-GRL C935G + Q939L (UniProt Q14671)
T17 sequence: T1 sequence with F109R

[18] = target: T18, PUM1 PUF domain R3-GRP C935G + Q939P (UniProt Q14671)
T18 sequence: T1 sequence with F109R, L112P

[19] = target: T19, PUM1 PUF domain R3-GRR C935G + Q939R (Homo sapiens) (UniProt Q14671)
T19 sequence: T1 sequence with F109R, L112R

[20] = target: T20, PUM1 PUF domain R3-GRS C935G + Q939S (UniProt Q14671)
T20 sequence: T1 sequence with F109R, L112S

[21] = target: T21, PUM1 PUF domain R3-GRT C935G + Q939T (UniProt Q14671)
T21 sequence: T1 sequence with F109R, L112T

[22] = target: T22, PUM1 PUF domain R3-GRV C935G + Q939V (UniProt Q14671)
T22 sequence: T1 sequence with F109R, L112V

[23] = target: T23, PUM1 PUF domain R3-GRW C935G + Q939W (UniProt Q14671)
T23 sequence: T1 sequence with F109R, L112W

[24] = target: T24, PUM1 PUF domain R3-GRY C935G + Q939Y (UniProt Q14671)
T24 sequence: T1 sequence with F109R, L112Y

[25] = target: T25, PUM1 PUF domain R3-GVE C935G + R936V + Q939E (UniProt Q14671)
T25 sequence: T1 sequence with F109V, L112E

[26] = target: T26, PUM1 PUF domain R3-GWA C935G + R936W + Q939A (UniProt Q14671)
T26 sequence: T1 sequence with F109W, L112A

[27] = target: T27, PUM1 PUF domain R3-GWD C935G + R936W + Q939D (UniProt Q14671)
T27 sequence: T1 sequence with F109W, L112D

[28] = target: T28, PUM1 PUF domain R3-GWG C935G + R936W + Q939G (UniProt Q14671)
T28 sequence: T1 sequence with F109W, L112G

[29] = target: T29, PUM1 PUF domain R3-GWI C935G + R936W + Q939I (UniProt Q14671)
T29 sequence: T1 sequence with F109W, L112I

[30] = target: T30, PUM1 PUF domain R3-GWP C935G + R936W + Q939P (UniProt Q14671)
T30 sequence: T1 sequence with F109W, L112P

[31] = target: T31, PUM1 PUF domain R3-IFR C935I + R936F + Q939R (Homo sapiens) (UniProt Q14671)
T31 sequence: T1 sequence with G108I, L112R

[32] = target: T32, PUM1 PUF domain R3-IRG C935I + Q939G (UniProt Q14671)
T32 sequence: T1 sequence with G108I, F109R, L112G

[33] = target: T33, PUM1 PUF domain R3-IRV C935I + Q939V (UniProt Q14671)
T33 sequence: T1 sequence with G108I, F109R, L112V

[34] = target: T34, PUM1 PUF domain R3-IWR C935I + R936W + Q939R (Homo sapiens) (UniProt Q14671)
T34 sequence: T1 sequence with G108I, F109W, L112R

[35] = target: T35, PUM1 PUF domain R3-IYR C935I + R936Y + Q939R (Homo sapiens) (UniProt Q14671)
T35 sequence: T1 sequence with G108I, F109Y, L112R

[36] = target: T36, PUM1 PUF domain R3-IYV C935I + R936Y + Q939V (UniProt Q14671)
T36 sequence: T1 sequence with G108I, F109Y, L112V

With “GGCUAGAACUAGUGGAUCCCCCGGCGCCCGGCGGCUCGAGCCCGGGUAAGUGUAACUAGUCUGCAUGCCGCCGGGCGCCAUGCCUGCAGGUCGACUCUAGAAAACAUG” as the sequence, how does the binding signal (log2 enrichment (interaction score)) [1] read?
Its binding signal (log2 enrichment (interaction score)) is less than -9.4.

And the binding signal (log2 enrichment (interaction score)) [2]?
Its binding signal (log2 enrichment (interaction score)) is less than -9.

What about the binding signal (log2 enrichment (interaction score)) [3] of the same sequence?
Its binding signal (log2 enrichment (interaction score)) is less than -7.85.

And the binding signal (log2 enrichment (interaction score)) [4]?
Its binding signal (log2 enrichment (interaction score)) is -3.06.

What about the binding signal (log2 enrichment (interaction score)) [5] of the same sequence?
Its binding signal (log2 enrichment (interaction score)) is less than -7.73.

What about the binding signal (log2 enrichment (interaction score)) [6] of the same sequence?
Its binding signal (log2 enrichment (interaction score)) is less than -8.82.

And the binding signal (log2 enrichment (interaction score)) [7]?
The binding signal (log2 enrichment (interaction score)) was less than -8.42.

And the binding signal (log2 enrichment (interaction score)) [8]?
The binding signal (log2 enrichment (interaction score)) was -5.42.

And the binding signal (log2 enrichment (interaction score)) [9]?
The binding signal (log2 enrichment (interaction score)) was -2.41.

And the binding signal (log2 enrichment (interaction score)) [10]?
Its binding signal (log2 enrichment (interaction score)) is less than -8.74.

And the binding signal (log2 enrichment (interaction score)) [11]?
Its binding signal (log2 enrichment (interaction score)) is less than -10.7.

And the binding signal (log2 enrichment (interaction score)) [12]?
The binding signal (log2 enrichment (interaction score)) was less than -9.99.

What about the binding signal (log2 enrichment (interaction score)) [13] of the same sequence?
The binding signal (log2 enrichment (interaction score)) was less than -9.06.

What about the binding signal (log2 enrichment (interaction score)) [14] of the same sequence?
Its binding signal (log2 enrichment (interaction score)) is less than -9.89.

And the binding signal (log2 enrichment (interaction score)) [15]?
Its binding signal (log2 enrichment (interaction score)) is -3.16.

And the binding signal (log2 enrichment (interaction score)) [16]?
The binding signal (log2 enrichment (interaction score)) was less than -6.92.

What about the binding signal (log2 enrichment (interaction score)) [17] of the same sequence?
The binding signal (log2 enrichment (interaction score)) was -4.46.

What about the binding signal (log2 enrichment (interaction score)) [18] of the same sequence?
Its binding signal (log2 enrichment (interaction score)) is -4.42.

And the binding signal (log2 enrichment (interaction score)) [19]?
The binding signal (log2 enrichment (interaction score)) was -0.41.

What about the binding signal (log2 enrichment (interaction score)) [20] of the same sequence?
The binding signal (log2 enrichment (interaction score)) was -3.65.

And the binding signal (log2 enrichment (interaction score)) [21]?
Its binding signal (log2 enrichment (interaction score)) is -2.5.

And the binding signal (log2 enrichment (interaction score)) [22]?
The binding signal (log2 enrichment (interaction score)) was -3.88.

What about the binding signal (log2 enrichment (interaction score)) [23] of the same sequence?
The binding signal (log2 enrichment (interaction score)) was -3.97.

What about the binding signal (log2 enrichment (interaction score)) [24] of the same sequence?
The binding signal (log2 enrichment (interaction score)) was -3.31.

And the binding signal (log2 enrichment (interaction score)) [25]?
Its binding signal (log2 enrichment (interaction score)) is -4.97.

And the binding signal (log2 enrichment (interaction score)) [26]?
Its binding signal (log2 enrichment (interaction score)) is less than -7.82.

And the binding signal (log2 enrichment (interaction score)) [27]?
The binding signal (log2 enrichment (interaction score)) was -6.81.

What about the binding signal (log2 enrichment (interaction score)) [28] of the same sequence?
The binding signal (log2 enrichment (interaction score)) was -4.62.

And the binding signal (log2 enrichment (interaction score)) [29]?
The binding signal (log2 enrichment (interaction score)) was -6.86.

What about the binding signal (log2 enrichment (interaction score)) [30] of the same sequence?
The binding signal (log2 enrichment (interaction score)) was -3.44.

And the binding signal (log2 enrichment (interaction score)) [31]?
The binding signal (log2 enrichment (interaction score)) was 0.03.

What about the binding signal (log2 enrichment (interaction score)) [32] of the same sequence?
The binding signal (log2 enrichment (interaction score)) was less than -8.43.

And the binding signal (log2 enrichment (interaction score)) [33]?
Its binding signal (log2 enrichment (interaction score)) is less than -8.5.

And the binding signal (log2 enrichment (interaction score)) [34]?
Its binding signal (log2 enrichment (interaction score)) is -0.4.

And the binding signal (log2 enrichment (interaction score)) [35]?
The binding signal (log2 enrichment (interaction score)) was -2.27.

And the binding signal (log2 enrichment (interaction score)) [36]?
The binding signal (log2 enrichment (interaction score)) was less than -7.31.
